Some of the results follow.
B1: il2ra_site2_3nfp_sap_27_mot_HHH_b2_01508_000000034_0001_1_17_H_._c20373e0b622ec25385dccec0cbfe82e_0001_1_0001_0000400004_0000001_0_0001_af2pred_0001_1_af2pred_s … (protein)
chain: SSSSSSDEEERVEELIERLEKVSEEERRELAAEALHLAWELNNPELFSAVAEALLRLDSSSSSSS
B2: il2ra_site1_3nfp_sap_20_mot_HHH_b2_05178_af2_000000174_0001_1_19_H_._HHH_b1_07472_0001_0000300011_0000001_0_0001_af2pred_0001_af2pred_swapped (protein)
chain: SSSSNDLSKRLQELLKLIIEARKRNDEELLEELIEEAKEIAEEANSPLARELVELFEENANSSSS
B3: il2ra_site2_2erj_normal_mot_HHH_b2_01353_af2_000000049_0001_23_39_H_._HHH_b2_01261_0001_0000200007_0000001_0_af2pred_0001_af2pred (protein)
chain: SSSSSDEEEVERLLEEAERLLENGNPEEARQALLEAFELALELGDEELEKRVIEAHLRLLSSSSS
B4: il2ra_site1_3nfp_normal_mot_HHH_b1_06126_000000053_0001_39_51_H_._HHH_b2_06815_0001_0000300024_0000001_0 (protein)
chain: SSSSSDIEERIRELLEEAKEIEDPREALRLFEEALRLAAKAQDPELERLVHEFVKELAGSSSSSS
B5: il2ra_site2_2erj_sap_10_mot_HHH_b1_08207_af2_000000250_0001_43_57_H_._HHH_b2_03076_0001_0000100015_0000001_0_0001 (protein)
chain: SSSSDWLHRLYELANRITELASRGNPEEAREVLEELQELAEEANSDNAKWVAEALEKHLNSSSSS
B6: il2ra_site1_1z92_normal_mot_c9a8daa1dfea21d1414aecde54be4f54_0001_1_af2_000000024_0001_32_46_H_._15f70e71ac3214bf43105af5abf4654e_0001_1_af2_0001_0000300029_000 … (protein)
chain: DEEAARKDLEFALKQGIPPRSVVRAVLLALEHELGDPEEALEVIERAIKLLNDPELEEVVEKLKP
B7: il2ra_site1_2b5i_normal_mot_HHH_b1_05608_000000027_0001_1_14_H_._HHH_b1_07838_af2_0001_0000100003_0000001_0_af2pred_dldesign_0_af2pred (protein)
chain: SSSSSALEAEVEATLAEARRLADAGRRREALEALEKIQKKLDEEDREDLEDRVVALAKELSSSSS
B8: il2ra_site1_2b5i_normal_mot_HHH_b2_04353_af2_000000128_0001_1_17_H_._HHH_b2_02609_0001_0000100009_0000001_0_af2pred_dldesign_0_af2pred (protein)
chain: SSSSDEVWDEVDRLYKEALRLWKEGKKEEAKELLEKALELAKAANDEKLIKDLEYLLKLISSSSS
B9: il2ra_site2_2erj_sap_21_mot_HHH_b1_00941_000000060_0001_45_58_H_._HHH_b1_04651_0001_0000200027_0000001_0_0001 (protein)
chain: SSSSDKEEIEELLEELEEALRRGDFHTFYRISREVYHLIVELGDEELAEVLARLAEEIMEQSSSS
B10: il2ra_site2_2erj_normal_mot_HHH_b1_03107_000000098_0001_39_52_H_._HHH_b2_03853_0001_0000200008_0000001_0 (protein)
chain: SSSSTWREVWEEVAELLALAAHIDDEEEAERVLEEARRVAEENNDEILRRYVEFVLRDFKSSSSS
B11: il2ra_site1_2b5i_sap_17_mot_HHH_b2_06068_000000278_0001_1_18_H_._HEEHE_2120_af2_0001_0000300022_0000001_0_0001_af2pred_dldesign_0_af2pred (protein)
chain: SSSSAEQIREARELFLKANELFQAGKPEEAKEALERALELARAGGAPLLARMIELALKQIESSSS
B12: il2ra_site2_3nfp_normal_mot_HHH_b1_05547_af2_000000149_0001_21_38_H_._HHH_b1_01193_0001_0000400013_0000001_1 (protein)
chain: SSSSDEEERKLEEALELVLEAARALGDEEVVRLIEKLLEEFREEGDPRATLEAYRLSREAYSSSS
B13: il2ra_site1_2b5i_normal_mot_2cbe48e66a1f39b3fed734b245ab0a04_0001_000000015_0001_17_31_H_._HHH_b2_00019_0001_0000500012_0000001_0_af2pred_dldesign_0_af2pred (protein)
chain: SSSSSSDAEAEVERLLEEARKVNPEEAEKLLFKALVVAWAAKDPALVARVEAEAKRLLSSSSSSS
B14: il2ra_site1_2b5i_sap_10_mot_HHH_b2_05260_af2_000000278_0001_1_17_H_._HHH_b2_03791_af2_0001_0000100001_0000001_0_0001_af2pred_0001_af2pred (protein)
chain: SSSSDEEFERVTELYRRASKLFLRGNKEEARQLLEEAIEIAEEAGDERIVEELRRFLELISSSSS
B15: il2ra_site1_2b5i_sap_7_mot_a062c9180b9d9b99c2c1a6214047e1ca_0001_000000007_0001_1_12_H_._HHH_b1_01731_0001_0000200020_0000001_1_0001_af2pred_dldesign_0_af2pred (protein)
chain: SSSSSSRREAILKIEELLKEADKLEDLEERQKVLDEAEKLAKELGDPFLLKAVADRRAELSSSSS
B16: il2ra_site2_2erj_normal_mot_HHH_b1_08185_000000063_0001_41_55_H_._HHH_b1_08449_af2_0001_0000200032_0000001_0 (protein)
chain: SSSSSEAELILELLERQIREAIERNDPSEVELLLRYLKLSAHDANDEEAEEVLEELEELISSSSS
B17: il2ra_site1_3nfp_normal_mot_cc4219192d8ccd35c40e7b68f9a57604_0001_af2_000000124_0001_16_32_H_._HHH_b2_07250_0001_0000900010_0000001_0_af2pred_0001_af2pred (protein)
chain: SSSSDALEWVEELAEKAFENNDKQLLEALYKLLREALEKYGDPEAEEVLEKVEELLRELQSSSSS
B18: il2ra_site1_3nfp_normal_mot_HHH_b2_05589_af2_000000178_0001_1_18_H_._HHH_b2_00580_af2_0001_0000300010_0000001_0_af2pred_0001_af2pred_1 (protein)
chain: SSSSSEEFKEVNRLLKEVVELRRNGNKEEAERLLEELLEELEKLNNEREARFVRKLLELKSSSSS

Biological target: il2ra, P01589
Test: yeast display titration

Apparent Kd, inactive:
B1 no binding seen
B2 no binding seen
B3 no binding seen
B4 no binding seen
B5 no binding seen
B6 no binding seen
B7 no binding seen
B8 no binding seen
B9 no binding seen
B10 no binding seen
B11 > 843 nM
B12 no binding seen
B13 no binding seen
B14 > 6.82 nM
B15 > 1050 nM
B16 no binding seen
B17 no binding seen
B18 no binding seen

Quoted from the listing for reference:
Apparent Kd, inactive:
B17 no binding seen
B18 no binding seen

Reference: paper PMC10163288
